From patent US20260076923A1, “METHOD AND COMPOSITION TO REDUCE OR INHIBIT ADVANCED GLYCATION END-PRODUCTS” (NANJING NUTRABUILDING BIO-TECH CO., LTD., priority 2023, published 2026)
At least one structure is not confirmed: it was looked up by name or label, or the drawing left a doubt.

Columns and labels:
GSH = GSH activity in skin of D-galactose-injected mice; format: in vivo, Kunming mice; conditions: end of the trial (14th week), 100 mg/kg each s.c. once daily for 6 weeks, compared to non-supplementation group, FIG. 7
Method: (§1) Six-week-old, male, Kunming mice (n=40), weighed about 30±2 g, were obtained from Cavens Lab Animal (Changzhou, China) and housed in a controlled room (25±2° C., 60% relative humidity, 12 h light/dark cycle) with free access to water and standard laboratory diet. After an acclimation period (1 week), mice were randomly divided into four groups. Each mouse's back skin was chosen as the experimental observation area, a razor was used to shave off the back hair. 5% sodium sulfide solution was applied to the back to remove the hair.
(§2) All mice were then injected subcutaneously with same volume of D-galactose (1000 mg/kg), once a day for 8 weeks. During the entire experiment, the daily food intake and weight of each mouse were recorded every day, and the D-galactose injection dose were adjusted according to the weight change.
(§3) The four groups were non-supplement group (Con, Group 1); THC supplement group (100 mg/kg, Group 2); EGT supplement group (100 mg/kg, Group 3); and EGT+THC supplement group (100 mg/kg EGT+100 mg/kg THC, Group 4). Mice in groups 2-4 were injected subcutaneously (s.c.) into their back skins with the corresponding concentration before each major meal once daily for 6 weeks. […]
(§4) Oxidative stress is increased during aging. […] The levels of H2O2, SOD, CAT, GSH, and GSH-Px in the skin were detected with relative kits as reference. […]

GSH-Px = GSH-Px activity in skin of D-galactose-injected mice; format: in vivo, Kunming mice; conditions: end of the trial (14th week), 100 mg/kg each s.c. once daily for 6 weeks, compared to non-supplementation group, FIG. 8
Method: as §1, §2, §3, §4

SOD = SOD activity in skin of D-galactose-injected mice; format: in vivo, Kunming mice; conditions: end of the trial (14th week), 100 mg/kg each s.c. once daily for 6 weeks, compared to non-supplementation group, FIG. 5
Method: as §1, §2, §3, §4

CAT = CAT activity in skin of D-galactose-injected mice; format: in vivo, Kunming mice; conditions: end of the trial (14th week), 100 mg/kg each s.c. once daily for 6 weeks, compared to non-supplementation group, FIG. 6
Method: as §1, §2, §3, §4

AGEs = test: Measurement of glycation: BSA incubated with D-ribose, fluorescence of the AGEs; format: biochemical, bovine; conditions: BSA 1 mg/ml + D-ribose 10 mM in PBS, 37° C., 10 days; THC 10 mM and/or EGT 10 mM; λex=380 nm, λem=450 nm; FIG. 1

COc1cc(CCC(=O)CC(=O)CCc2ccc(O)c(OC)c2)ccc1O [THC, Tetrahydrocurcumin]
GSH activity (GSH): significantly improved
GSH-Px activity (GSH-Px): significantly improved
SOD activity (SOD): significantly improved
CAT activity (CAT): significantly improved
percentage inhibition of fluorescence of the AGEs relative to the control (anti-glycation activity) (AGEs): fabulous anti-glycation activity
